The text below walks through data of publication PMC11904033, “Lanatoside C activates the E3 ligase STUB1 to inhibit FOXP3 transcriptional activity and promote antitumor immunity” (EMBO Molecular Medicine, 2025).

Chains of the proteins cited; added tags and fusions are not shown. Residues count along the entry.
UniProt Q9BZS1, residues 1-417: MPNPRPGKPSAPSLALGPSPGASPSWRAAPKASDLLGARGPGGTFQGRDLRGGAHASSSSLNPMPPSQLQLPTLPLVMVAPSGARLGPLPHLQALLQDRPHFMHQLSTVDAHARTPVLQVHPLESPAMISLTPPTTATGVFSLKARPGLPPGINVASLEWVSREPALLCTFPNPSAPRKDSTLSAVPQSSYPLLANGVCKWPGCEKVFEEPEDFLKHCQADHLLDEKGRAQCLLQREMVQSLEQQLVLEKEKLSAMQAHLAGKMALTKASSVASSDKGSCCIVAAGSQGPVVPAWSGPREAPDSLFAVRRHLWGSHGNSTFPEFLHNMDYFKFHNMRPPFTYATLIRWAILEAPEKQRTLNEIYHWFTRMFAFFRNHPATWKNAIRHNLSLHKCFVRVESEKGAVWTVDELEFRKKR
UniProt Q01196: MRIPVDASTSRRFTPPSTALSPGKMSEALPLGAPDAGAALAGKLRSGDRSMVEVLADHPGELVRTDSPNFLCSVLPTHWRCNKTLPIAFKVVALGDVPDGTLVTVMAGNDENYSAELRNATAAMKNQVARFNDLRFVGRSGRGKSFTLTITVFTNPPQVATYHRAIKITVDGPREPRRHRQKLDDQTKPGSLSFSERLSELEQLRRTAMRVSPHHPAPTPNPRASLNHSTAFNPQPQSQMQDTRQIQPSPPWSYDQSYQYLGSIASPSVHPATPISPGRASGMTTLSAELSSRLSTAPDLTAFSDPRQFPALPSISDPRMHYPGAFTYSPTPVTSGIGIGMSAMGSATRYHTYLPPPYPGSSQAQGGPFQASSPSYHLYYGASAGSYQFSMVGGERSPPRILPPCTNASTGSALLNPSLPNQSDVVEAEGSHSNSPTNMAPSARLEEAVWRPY
UniProt P26842, residues 20-260: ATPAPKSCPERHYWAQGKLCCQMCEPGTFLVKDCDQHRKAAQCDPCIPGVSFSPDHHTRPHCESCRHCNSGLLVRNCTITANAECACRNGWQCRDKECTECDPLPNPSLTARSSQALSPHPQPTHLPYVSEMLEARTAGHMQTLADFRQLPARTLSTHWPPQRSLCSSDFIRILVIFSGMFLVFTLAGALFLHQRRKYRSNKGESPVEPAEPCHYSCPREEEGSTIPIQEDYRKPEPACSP
UniProt Q9UNE7: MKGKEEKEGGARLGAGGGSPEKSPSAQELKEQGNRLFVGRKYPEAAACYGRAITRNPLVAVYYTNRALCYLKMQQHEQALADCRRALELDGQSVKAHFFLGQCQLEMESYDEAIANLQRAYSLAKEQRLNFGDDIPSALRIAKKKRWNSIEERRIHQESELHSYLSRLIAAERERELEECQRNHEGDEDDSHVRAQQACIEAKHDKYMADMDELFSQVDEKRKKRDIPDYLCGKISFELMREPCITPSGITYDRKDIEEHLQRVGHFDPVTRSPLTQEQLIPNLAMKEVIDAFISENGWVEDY

No constants are given. Whether binding was seen depends on the method and setting. Binding seen in cells or lysates may run through a third protein. Some binding calls cover weakened binding; strength is not graded here.

The target in assay [1] is Nlu-FOXP3-Flag (FOXP3 fused to the N-terminal half of firefly luciferase, 3xFlag) (UniProt Q9BZS1). The experiment in a line: split reporter; bimolecular luciferase complementation (halves of firefly luciferase) in 293T cells that co-express the two fusions; Bright-Glo Luciferase Assay System, 96-well plate.
The target is the same in assay [2]. The experiment in a line: co-IP; lysate of 293T-NF + RC cells treated with DMSO or Lac; FOXP3 precipitated, RUNX1 detected by immunoblot.
The target in assay [3] is RUNX1 (expressed in 293T for the co-IP with STUB1) (UniProt Q01196). The experiment in a line: co-IP; lysate of 293T cells co-transfected with the indicated plasmids for around 36 h, treated with DMSO or Lac; RUNX1 precipitated, STUB1 detected by immunoblot.

As to “CD27-Clu-Myc (CD27 fused to the C-terminal half of firefly luciferase) (from UniProt P26842 20-260)”, the binding entry in assay [1] was “no binding”.
For “RUNX1-Clu-Myc (RUNX1 fused to the C-terminal half of firefly luciferase, Myc) (from UniProt Q01196 1-453)”, the binding result in assay [1] and in assay [2] was “binds” each time.
On to “STUB1 (expressed in 293T for the co-IP with RUNX1) (from UniProt Q9UNE7 1-303)”, for which the binding result in assay [3] is recorded as “binds”.
